According to article PMC3870299, “Comparative genomics and functional analysis of rhamnose catabolic pathways and regulons in bacteria” (Frontiers in Microbiology, 2013):
For at least one entry, the source does not settle the construct or the ends of the probe. A negative result means that nothing was seen under these conditions. Tags and fusion partners may be left off the protein sequences shown.

Target: T1, RhaR (DeoR family) (Chloroflexus aurantiacus J-10-fl) (UniProt A9WGG7)
T1 sequence (looked up, limits assumed): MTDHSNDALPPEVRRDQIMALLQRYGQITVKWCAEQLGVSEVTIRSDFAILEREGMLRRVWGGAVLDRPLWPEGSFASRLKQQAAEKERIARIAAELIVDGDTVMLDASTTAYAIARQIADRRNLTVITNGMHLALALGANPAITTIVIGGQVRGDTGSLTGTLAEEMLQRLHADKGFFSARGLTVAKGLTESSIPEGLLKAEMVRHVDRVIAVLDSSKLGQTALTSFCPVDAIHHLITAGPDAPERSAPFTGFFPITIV
Assay: EMSA
Settings: EMSA: 50 mM Tris-HCl pH 8.0, 150 mM NaCl, 5 mM MgCl2, 1 mM DTT (printed DDT), 0.05% NP-40, 2.5% glycerol, 1 ug poly(dI-dC), 0.2 nM DNA, 20 ul, 25 min at 50 C, recombinant protein, protein details: His6-Smt3 (SUMO) N-terminal tag, cleaved with Ulp1

Sequence	binding result (RhaR 1 uM, 2 mM L-rhamnulose (binding abolished))	binding result (RhaR 0.5 uM, negative control)
GGGGGTTCGTAAAATCTCGTAAGTACTTGACAAATCTTGAAAAGGGGG (double strand) [rhaR upstream 48-bp fragment (38-bp RhaR operator)]	no binding	
GGCAGGCATCCGTAGAGCGCTCTACGATAACGATTTGGCAAAACTTTACCGTATCTTTAATCTCTGATCACATTTATTCGCTATTGTGAAAATATCCACAGTGCAATGGTTTGACACAGATACGCGGCGCAGCCTATAATCGAAGCATCCGCAATGTAAGCACCCCGCCGCATGGATTCGTAACAAGGAGGTTCGACACA (double strand) [Caur_0003 upstream 200-bp fragment]		no binding
